Results as given in the supplement of paper PMC6078165.
The reference is the same well before dosing, and untreated signal decays as well.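 Fibroblast labels name human fibroblasts: mostly primary ones from tissues such as uterus (C12385, HUF), lung (H6013), bone (Hs27A), adrenal (HADF) and skin (WS1), plus mammary HMF and breast cancer-associated Hs343T. The cancer cells are basal-like or mesenchymal-like triple-negative breast cancer lines. The paper calls a changed response a hit when it shifts by more than 3x the replicate standard deviation. The tissue of the other fibroblasts is not given here.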

System: MDAMB436
Experiment: relative JC-1 red fluorescence (viability) vs pre-drug, coculture with fibroblast (fraction); higher = more viable cancer cells
Settings: 10 µM
Experimental: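 JC-1 labelled TNBC cells cocultured 1:1 (1,500 cells each) with CellTrace Violet stained primary or stromal fibroblasts in 384-well plates in FluoroBrite medium, treated with one of 42 anticancer drugs at 0.1, 1, 10 or 100 uM. JC-1 red fluorescence (mitochondrial integrity in cancer cells only) was read by plate reader every 8 h for 72 h. Values are normalised to each well's pre-drug value. The stock of one drug was tenfold lower, so its dose labels may be too high.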

CCCCCOC(=O)Nc1nc(=O)n([C@@H]2O[C@H](C)[C@@H](O)[C@H]2O)cc1F [Capecitabine]
relative JC-1 red fluorescence
Settings | 8 h | 16 h | 24 h | 32 h | 40 h | 48 h | 56 h | 64 h | 72 h
coculture fibroblast: C12385 | 0.823 | 0.7 | 0.674 | 0.583 | 0.539 | 0.51 | 0.478 | 0.455 | 0.449
coculture fibroblast: H6013 | 0.8093 | 0.711 | 0.686 | 0.662 | 0.636 | 0.658 | 0.616 | 0.604 | 0.557
coculture fibroblast: H6019 | 0.746 | 0.687 | 0.661 | 0.576 | 0.535 | 0.511 | 0.465 | 0.436 | 0.408
coculture fibroblast: H6076 | 0.643 | 0.574 | 0.554 | 0.511 | 0.498 | 0.48 | 0.484 | 0.475 | 0.462
coculture fibroblast: H6231 | 0.73 | 0.639 | 0.565 | 0.487 | 0.462 | 0.434 | 0.415 | 0.399 | 0.3792
coculture fibroblast: HADF | 0.804 | 0.713 | 0.696 | 0.662 | 0.651 | 0.677 | 0.609 | 0.6 | 0.561
coculture fibroblast: HCFa | 0.801 | 0.737 | 0.712 | 0.675 | 0.648 | 0.661 | 0.591 | 0.579 | 0.527
coculture fibroblast: HCPF | 0.746 | 0.597 | 0.5832 | 0.507 | 0.485 | 0.444 | 0.428 | 0.411 | 0.399
coculture fibroblast: HHSteC | 0.822 | 0.743 | 0.7201 | 0.6767 | 0.6715 | 0.683 | 0.62 | 0.604 | 0.549
coculture fibroblast: HMF | 0.775 | 0.599 | 0.545 | 0.487 | 0.465 | 0.425 | 0.425 | 0.4071 | 0.40327
coculture fibroblast: HPFa | 0.8801 | 0.7951 | 0.7605 | 0.7121 | 0.6906 | 0.6931 | 0.6171 | 0.5891 | 0.505
coculture fibroblast: HUF | 0.852 | 0.7261 | 0.686 | 0.607 | 0.545 | 0.52 | 0.494 | 0.478 | 0.47
coculture fibroblast: Hs5 | 0.7602 | 0.6273 | 0.606 | 0.554 | 0.535 | 0.49 | 0.502 | 0.469 | 0.457
coculture fibroblast: Hs27A | 0.815 | 0.75 | 0.71 | 0.686 | 0.65 | 0.716 | 0.615 | 0.599 | 0.516
coculture fibroblast: Hs343T | 0.653 | 0.608 | 0.59 | 0.546 | 0.525 | 0.482 | 0.482 | 0.478 | 0.47
coculture fibroblast: WS1 | 0.763 | 0.679 | 0.64204 | 0.5503 | 0.5 | 0.4745 | 0.438 | 0.4079 | 0.3873
